Here are results for two molecules from article PMC5762779, “The peroxisomal AAA-ATPase Pex1/Pex6 unfolds substrates by processive threading” (Nature Communications, 2018).

Protein sequences, listed by entry. Tags and fused reporters are not part of them. Lines headed by an entry give the natural chain unless they say otherwise; changes in a name come on top.
UniProt P24004: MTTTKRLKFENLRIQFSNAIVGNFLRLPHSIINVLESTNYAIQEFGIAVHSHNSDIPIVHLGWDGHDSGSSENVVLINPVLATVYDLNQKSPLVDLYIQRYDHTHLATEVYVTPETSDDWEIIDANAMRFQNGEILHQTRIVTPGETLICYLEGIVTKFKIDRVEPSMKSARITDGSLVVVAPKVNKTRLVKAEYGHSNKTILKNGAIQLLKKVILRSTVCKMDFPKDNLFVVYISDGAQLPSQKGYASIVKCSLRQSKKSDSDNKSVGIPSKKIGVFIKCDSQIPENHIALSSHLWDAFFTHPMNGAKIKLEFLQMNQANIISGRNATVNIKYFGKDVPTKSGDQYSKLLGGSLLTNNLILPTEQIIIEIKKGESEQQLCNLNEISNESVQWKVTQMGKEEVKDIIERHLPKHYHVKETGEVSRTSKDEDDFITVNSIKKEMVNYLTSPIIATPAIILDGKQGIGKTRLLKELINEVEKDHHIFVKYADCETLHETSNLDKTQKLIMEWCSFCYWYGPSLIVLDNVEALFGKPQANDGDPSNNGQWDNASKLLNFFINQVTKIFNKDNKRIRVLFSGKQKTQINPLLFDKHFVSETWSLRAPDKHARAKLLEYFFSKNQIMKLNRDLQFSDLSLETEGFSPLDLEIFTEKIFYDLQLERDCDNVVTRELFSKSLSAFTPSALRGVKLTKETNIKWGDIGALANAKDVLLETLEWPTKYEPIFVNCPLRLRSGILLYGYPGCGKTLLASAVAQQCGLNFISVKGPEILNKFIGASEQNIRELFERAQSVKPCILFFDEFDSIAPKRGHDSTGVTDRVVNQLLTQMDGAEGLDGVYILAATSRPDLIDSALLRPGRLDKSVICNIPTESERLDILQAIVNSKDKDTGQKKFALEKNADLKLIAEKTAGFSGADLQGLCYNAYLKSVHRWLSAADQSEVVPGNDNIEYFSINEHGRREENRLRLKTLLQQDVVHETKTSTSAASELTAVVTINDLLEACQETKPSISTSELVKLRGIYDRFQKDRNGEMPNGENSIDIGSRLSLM

These are yes or no findings as the source states them, for the method shown. Some results given as binding are weak or reduced against the parent protein; the word gives no strength. Where a sequence is shown, tags or fusion partners need not be part of it.

Experiment [1] deals with T1, MBP-Pex15 1-309 (S. cerevisiae) (UniProt Q08215).
T1 sequence: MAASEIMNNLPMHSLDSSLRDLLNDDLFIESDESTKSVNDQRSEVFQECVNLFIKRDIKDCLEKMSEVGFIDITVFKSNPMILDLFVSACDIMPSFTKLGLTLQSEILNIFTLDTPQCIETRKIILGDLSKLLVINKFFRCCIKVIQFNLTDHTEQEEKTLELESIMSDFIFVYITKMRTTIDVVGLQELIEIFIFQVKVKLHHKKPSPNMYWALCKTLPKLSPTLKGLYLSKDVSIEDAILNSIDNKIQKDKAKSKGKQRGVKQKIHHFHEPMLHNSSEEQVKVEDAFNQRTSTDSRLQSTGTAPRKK
In words: pull-down; MBP-Pex15 C-terminal truncations with Pex1/Pex6 (Supplementary Figure 8A); conditions not told in the text shown; both purified.

The target of experiment [2] is T2, MBP-Pex15 1-253 (S. cerevisiae) (UniProt Q08215).
T2 sequence: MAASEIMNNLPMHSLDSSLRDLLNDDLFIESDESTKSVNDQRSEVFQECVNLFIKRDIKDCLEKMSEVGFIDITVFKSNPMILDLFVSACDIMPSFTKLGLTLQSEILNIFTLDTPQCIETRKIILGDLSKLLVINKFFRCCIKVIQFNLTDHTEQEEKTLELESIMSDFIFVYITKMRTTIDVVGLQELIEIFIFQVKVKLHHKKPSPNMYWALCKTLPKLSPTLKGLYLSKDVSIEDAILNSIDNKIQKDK
Described as above.

The target of experiment [3] is T3, MBP-Pex15 1-327-FLAG-His (S. cerevisiae) (UniProt Q08215).
T3 sequence: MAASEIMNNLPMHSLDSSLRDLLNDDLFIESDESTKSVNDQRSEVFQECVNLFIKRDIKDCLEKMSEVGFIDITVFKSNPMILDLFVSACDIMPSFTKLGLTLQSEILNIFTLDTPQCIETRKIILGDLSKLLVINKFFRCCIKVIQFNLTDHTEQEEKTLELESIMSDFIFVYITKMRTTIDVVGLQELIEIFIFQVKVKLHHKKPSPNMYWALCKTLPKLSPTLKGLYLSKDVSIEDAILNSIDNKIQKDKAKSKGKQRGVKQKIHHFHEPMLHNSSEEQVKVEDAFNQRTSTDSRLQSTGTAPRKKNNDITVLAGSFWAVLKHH
Description: pull-down; 1 uM MBP-Pex15 1-327-FLAG-His on magnetic amylose resin with 0.5 uM Pex1-Strep/His-Pex6 hexamer, His-Pex1-FLAG, His-Pex6-FLAG or 5 uM His-Pex6 1-215; 1 h, 4 °C, 60 mM HEPES pH 7.6, 150 mM NaCl, 150 mM KCl, 10% glycerol, 0.05% Tween-20, 10 mM MgCl2, 0.5 mM EDTA, 5 mM ATP; maltose elution; SYPRO-Ruby or anti-His blot; both purified.

Experiment [4] addresses T3, MBP-Pex15 1-327-FLAG-His (S. cerevisiae). Description: pull-down; 1 μM MBP-Pex15 1-327-FLAG-His on magnetic amylose resin with 5 μM His-Pex6 1-215, 1 h, 4 °C, 60 mM HEPES pH 7.6, 150 mM NaCl, 150 mM KCl, 10% glycerol, 0.05% Tween-20, 10 mM MgCl2, 0.5 mM EDTA, 5 mM ATP; eluted with 20 mM maltose; SYPRO-Ruby or anti-His blot; both purified.

Take “Pex1-Strep/His-Pex6 hexamer, wild type (from UniProt P24004 1-1043; P33760 1-1030) (complex)”: the binding result in experiment [1] and in experiment [2] was “binds” each time.

B1: His-Pex6 1-215 (domain or fragment, UniProt P33760 1-215)
chain: MKASLTFSLSGIYAPCSISRDIYLEYGDKKAECLYGTIRLPQYGPGCTPGKIVHCVLDDSLPFCSIVVPSKLFGFMPTQPTMDFCYFEPILDNVVPVLDSVTFLINEQLYSKLMDLPQEMQQIQFLHYKYNINSMETVVHSRDILTSGLCQILNCSPFPQGLVDFTETQLILVNDTEQKLSALKYANEDEEYALPKIGTNSALSIDLESLPCTIS
As to B1, the binding result in experiment [3] and in experiment [4] was “binds” in each case.
